Measurements reported in PubChem BioAssay AID540303 (National Center for Advancing Translational Sciences (NCATS), 2011).
The whole screen tested about 330,000 compounds, of which about 1,000 (0.3%) were called active. Inconclusive results, whose numbers are uncertain, are shown with a selection of clear calls. The call rests on the fitted dose curve; in most records, active means well fitted inhibition curve with a large enough effect; inconclusive means small, poorly fitted or top-dose-only effect; inactive means no such curve, though single readings can be large or run the other way; tested in mouse RAW 264.7 cells. A potency beside an inconclusive call is a rough fit, not a confirmed value.

Test: qHTS for Inhibitors of Cell Surface uPA Generation; further: nearly all actives have a fitted effect of over 55% in size
Conditions: cell surface uPA generation assay; series mostly up to 38.3 µM; activity change, negative = inhibition: at the top concentration
Summary of the method: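 ATP-Lite luminescence in RAW 264.7 cells after 24 h of exposure to compound, tested up to 38.3 uM final in 1:5 steps. Raised ATP reflects inhibition of uPA-dependent LF delivery to the cytoplasm.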
On the % scale 0 is the no-effect control and ±100 the full control effect; potency means the concentration at half of the fitted maximal effect.

Which “activity change, negative = inhibition” value does the source give for `CCn1c(SCC(=O)NCCCN2CCCC2=O)nnc1-c1cccc(C)c1` here?
Its value is inactive: 15.5%.

For `COc1ccc(Br)cc1Cn1nnc(C(=O)Nc2ccc3c(c2)OCCO3)c1N`, which Potency is on record?
Its Potency is inconclusive: 10 µM [inhibitor, single point].

Which Potency does the source give for `COc1cc(-c2noc(C)c2/C=C/c2ccc(C(=O)O)cc2)cc(OC)c1OC` here?
Its Potency is inconclusive: 5.62 µM [inhibitor, single point].

With `CCC(Sc1nnc(-c2ccco2)n1C)C(=O)Nc1nnc(C)s1` (stereo not drawn) as the compound, how does the “activity change, negative = inhibition” value read?
The value was inactive: -3.35%.

Which Potency does the source give for `Cc1ccc(-c2c(C(=O)N/N=C/c3sccc3C)nnn2-c2nonc2N)cc1` here?
The Potency was inconclusive: 12.6 µM [inhibitor, single point].

Which Potency does the source give for `CC(=O)c1cc(C#N)c(SCC(=O)Nc2nccs2)nc1C` here?
Its Potency is inconclusive: 31.6 µM [inhibitor, single point].

For `CC(C)(C)OC(=O)N[C@H](C(=O)OC(C)(C)C)c1ccc2ccccc2c1`, which “activity change, negative = inhibition” value is on record?
The value was inactive: 6.51%.

With `CCOc1cc(C(=O)N2CCC3(CC2)NCCc2[nH]cnc23)cc(OCC)c1OCC` as the compound, how does the Potency read?
Its Potency is inconclusive: 11.2 µM [inhibitor, single point].

With `C/C(=N\NC(=O)c1cc(C)nc2ccccc12)c1ccccn1` as the compound, how does the Potency read?
The Potency was inconclusive: 1.12 µM [inhibitor, partial curve, poor fit].

For `Cc1ccc(C)c(S(=O)(=O)N2CCCCC2CCNC(=O)C(=O)NCCc2ccco2)c1` (stereo not drawn), which Potency is on record?
The Potency was inconclusive: 14.1 µM [inhibitor, single point].

For `N/C(CS(=O)(=O)c1ccccn1)=N\OC(=O)c1ccccc1Cl`, which “activity change, negative = inhibition” value is on record?
The value was inactive: -4.28%.

With `O=C(NCCS(=O)(=O)NCc1ccc(F)cc1)c1ccc2c(c1)OCO2` as the compound, how does the “activity change, negative = inhibition” value read?
The value was inactive: 7.33%.

With `Brc1c(-c2ccccc2)nc2n1Cc1ccccc1-2` as the compound, how does the Potency read?
Its Potency is inconclusive: 11.2 µM [inhibitor, partial curve, poor fit].

Which Potency does the source give for `COc1ccc(N(CC(=O)N2CCN(c3ccc(Cl)cc3)CC2)S(=O)(=O)c2c(C)noc2C)cc1` here?
Its Potency is inconclusive: 7.08 µM [inhibitor, single point].

For `COc1ccc(OCCSc2ccc(S(=O)(=O)N3CCCC3)cn2)cc1`, which Potency is on record?
The Potency was inconclusive: 12.6 µM [inhibitor, single point].

With `COC(=O)CCCCCN1C(=O)/C(=C\c2ccncc2)SC1=S` as the compound, how does the Potency read?
Its Potency is inconclusive: 4.47 µM [inhibitor, partial curve, poor fit].

For `O=C(Nc1ncc(Cc2cccc([N+](=O)[O-])c2)s1)c1ccco1`, which Potency is on record?
The Potency was inconclusive: 12.6 µM [inhibitor, partial curve, poor fit].

For `Cn1c(NC(=O)c2ccccc2)nc2ccccc21`, which Potency is on record?
The Potency was inconclusive: 10 µM [inhibitor, single point].
